The assay can be described thus: qHTS Assay for Lipid Storage Modulators in Drosophila S3 Cells.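 On cell number change: cells counted by Cell Tracker Red CMTPX staining in the red channel.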 As to conditions: BODIPY lipid droplet fluorescence, 18-24 h; for cell number change: measured here: cell count max response, cells fed with added oleic acid. A digest of the protocol:
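Drosophila S3 cells loaded with oleic acid (400 uM, as added) and compounds at several concentrations; lipid droplets imaged by 488-nm laser-scanning cytometry, 500–530 nm intensity and object ratio to cell channel. Percent activity normalized to 20 uM Triacsin C.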
Background: Quantitative high-throughput screening tests each substance at several concentrations.

The mark [1] stands for this setting: measured here: cell number channel AC50, cells fed with added oleic acid.
Setting [2] is: measured here: lipid fluorescence (Fed channel) AC50, cells fed with added oleic acid.

The list shows a part of the results. Further columns of the screen follow, without active or inactive calls. Most of these compounds were active or inconclusive in the main read-out, so they are no random draw. Potencies come from curve fits of mixed quality, noted in brackets.

In general, AC50 refers to the midpoint of the concentration-response curve, whichever way the signal moves. A high value points to weaker potency.

`CN1CCN(CCCNC(=O)c2ccc(CS(=O)(=O)c3ccc(Br)cc3)o2)CC1`: the cell number change was found to be 2.45%. Also, under setting [1], the AC50 is 4.61 nM [falling, full curve]. Under setting [2], the concentration at half-maximal activity (AC50) was 130 nM [falling, full curve].
Take `COc1ccc(CNC(=S)N/N=C/c2ccncc2)cc1`: the cell number change was determined as 19.5%. Besides, under setting [2], the AC50 is 20600 nM [rising, partial curve].
For the compound `CCCCNS(=O)(=O)c1ccc2nc(-c3cccnc3)cc(C(=O)NCCCN(CC)CC)c2c1`, the cell number change is -10.7%. Moreover, under setting [2], the concentration at half-maximal activity (AC50) is 3260 nM [falling, partial curve, poor fit].
As for `O=C(N/N=C/C=C\c1ccco1)c1ccccn1`, the cell number change is -39.4%. In addition, the AC50 under setting [1] is 20600 nM [falling, single point]. The concentration at half-maximal activity (AC50) under setting [2] was 1640 nM [falling, partial curve].
For the compound `Cc1sc2nc(SCC(=O)N3CCOCC3)[nH]c(=O)c2c1C`, the concentration at half-maximal activity (AC50) is 651 nM [falling, single point] under setting [1] and 651 nM [falling, single point] under setting [2].
With `COc1ccc(Oc2nccc(-c3ccccc3)c2C#N)cc1`, the cell number change stood at 10.5%. For the same compound, the AC50 under setting [2] was 366 nM [falling, single point].
Turning to `O=C(Nc1ccc2oc(-c3ccccc3)nc2c1)c1ccncc1`, the cell number change was -5.67%. Also, the half-maximal activity concentration (AC50) under setting [1] was 411 nM [falling, full curve, poor fit]. In addition, under setting [2], the AC50 is 23100 nM [falling, partial curve, poor fit].
With `CCOC(=O)C(NC(=O)c1ccccc1OCC)(Nc1ncccn1)C(F)(F)F` (centres undefined), the cell number change was 58.6%. The half-maximal activity concentration (AC50) under setting [1] was 32600 nM [rising, partial curve, poor fit]. In addition, the concentration at half-maximal activity (AC50) under setting [2] was 29100 nM [rising, partial curve].
Regarding `O=C(Cn1c(=O)n(CC2CCCO2)c(=O)c2ccccc21)c1ccccc1` (centres undefined), the cell number change stood at 120%. For the same compound, the AC50 under setting [1] is 6510 nM [falling, single point].
As for `O=C(NC1CC2CCC(C1)N2C(=O)NCc1ccccc1)NC12CC3CC(CC(C3)C1)C2` (centres undefined), the AC50 under setting [2] was 25900 nM [rising, partial curve, poor fit].
As for `CC(Oc1ccc([N+](=O)[O-])cc1)C(=O)NCC1CCCO1` (centres undefined), the cell number change came out at 21.4%. Further, under setting [2], the concentration at half-maximal activity (AC50) was 29100 nM [rising, single point].
For `Nc1nnc(-c2cccc(F)c2)s1`, the cell number change was 3.1%. Besides, the AC50 under setting [1] was 130 nM [falling, full curve, poor fit]. Under setting [2], the half-maximal activity concentration (AC50) is 130 nM [falling, full curve, poor fit].
On to `Cc1ccc(CC2(O)CC(C)N(C)CC2C)c(C)c1` (centres undefined), for which the cell number change was -28.8%. The concentration at half-maximal activity (AC50) under setting [1] is 820 nM [falling, full curve, poor fit]. For the same compound, under setting [2], the AC50 is 461 nM [falling, full curve].
Regarding `CN(C)C(CNC(=O)c1cccc(S(=O)(=O)Nc2ccc(Br)cc2)c1)c1ccco1` (centres undefined), the half-maximal activity concentration (AC50) under setting [2] was 29100 nM [rising, single point].
For the compound `CSCCC(NC(=O)c1ccccc1Cl)C(=O)NCc1ccncc1` (centres undefined), the cell number change turned out to be 24.3%.
As for `Cc1ccc(-n2nc3c(c2NC(=O)c2ccco2)CS(=O)(=O)C3)c(C)c1`, the cell number change was -9.27%. Besides, the AC50 under setting [2] is 116 nM [rising, full curve, poor fit].
For `CC(=O)Nc1ccc(OC(=O)Cc2ccc(Cl)cc2)cc1`, the cell number change was determined as 2.38%. Under setting [2], the AC50 was 2910 nM [rising, partial curve].
On to `Cc1cc(C)c(NC(=O)CSCc2nc3sc(C)c(C)c3c(=O)[nH]2)c(Cl)c1`, for which the cell number change is -49.9%. Under setting [1], the half-maximal activity concentration (AC50) is 29100 nM [falling, single point]. Further, under setting [2], the half-maximal activity concentration (AC50) is 29100 nM [falling, single point].
Take `Cc1cc2nnc(SCC(=O)N3CCN(c4ccccc4)CC3)n2c(N)n1`: the cell number change is -11.3%. Further, the AC50 under setting [2] is 6510 nM [falling, single point].
With `Cc1cc2ncn(S(=O)(=O)c3ccc(S(=O)(=O)N4CCOCC4)cc3)c2cc1C`, the cell number change is 227%. For the same compound, the AC50 under setting [1] is 10300 nM [rising, partial curve]. The half-maximal activity concentration (AC50) under setting [2] was 2910 nM [rising, partial curve].
For `Cn1nc(-c2ccc(Cl)cc2)c2cc(C(=O)N3CCN(c4ccccn4)CC3)sc21`, the AC50 under setting [1] is 231 nM [rising, full curve, poor fit] and the AC50 under setting [2] is 291 nM [rising, partial curve, poor fit].
Regarding `Cc1onc(-c2ccccc2)c1-c1nnc(CN2CCN(S(=O)(=O)c3ccccc3)CC2)o1`, the cell number change was -25.1%. For the same compound, the AC50 under setting [2] was 29100 nM [rising, partial curve].
On to `Cc1c(Cl)cccc1NC(=O)CS(=O)(=O)c1ccccc1`, for which the cell number change was -11.5%. Further, under setting [2], the concentration at half-maximal activity (AC50) was 580 nM [rising, single point].
Take `Cc1cc(C)c(C)c(S(=O)(=O)N2CCC(C(=O)NC3=NCCS3)CC2)c1C`: the cell number change amounted to 13.3%. The half-maximal activity concentration (AC50) under setting [2] is 20600 nM [rising, single point].
Consider `NC(=S)N/N=C/c1ccc(-c2cc(Cl)cc(Cl)c2)o1`, for which the cell number change is -3%. In addition, the half-maximal activity concentration (AC50) under setting [2] is 146 nM [rising, full curve, poor fit].
`O=C(CN1C(=O)NC2(CCCCCC2)C1=O)c1cccs1`: the cell number change was -13.4%. For the same compound, under setting [2], the AC50 is 820 nM [rising, full curve].
For `COc1cccc(/C=C2\SC(=S)N(N3C(=O)CCCC3=O)C2=O)c1`, the cell number change is 14%. Besides, under setting [2], the concentration at half-maximal activity (AC50) was 3260 nM [falling, single point].
For `CC(=O)N1N=C(c2cccc(NS(C)(=O)=O)c2)CC1c1cccs1` (centres undefined), the cell number change is 31.1%. In addition, the AC50 under setting [1] is 29100 nM [rising, single point].
For `CCN1CCN(Cc2ccc(OC)c(OCc3ccccc3)c2)CC1`, the AC50 by setting is: under setting [1], 1300 nM [falling, full curve]; under setting [2], 1640 nM [falling, full curve].
As for `CCS(=O)(=O)N1CCC(NC(=O)c2ccco2)CC1`, the cell number change was -3.5%. Under setting [2], the AC50 is 4610 nM [falling, full curve].
Take `COc1ccc(CCNC(=O)CN2C(=O)c3ccccc3S2(=O)=O)cc1OC`: under setting [2], the concentration at half-maximal activity (AC50) was 2910 nM [falling, partial curve].
As for `Nn1c(SCc2cccc(Br)c2)nnc1-c1cccnc1`, the cell number change was found to be 7.37%. Moreover, the half-maximal activity concentration (AC50) under setting [2] is 6510 nM [rising, single point].
Consider `COc1cc(OC)nc(S(C)(=O)=O)n1`, for which the cell number change is -27.6%. The AC50 under setting [2] was 9200 nM [falling, partial curve, poor fit].
`COc1cc(NC(=O)/C=C/c2ccccc2)c(C(=O)O)cc1OC`: the cell number change came out at 25.1%. Further, the AC50 under setting [1] was 820 nM [rising, full curve, poor fit].
`O=C(Nc1cccc(Cl)c1)Nc1nnc(CSCCOc2ccc(Cl)cc2)s1`: the cell number change was -39%. Besides, the AC50 under setting [1] was 29100 nM [falling, single point].

The record behind these values is PubChem BioAssay AID2685 (National Center for Advancing Translational Sciences (NCATS), 2010).
